Patent publication US20040067593A1, “Electron paramagnetic resonance method for diagnosis of active nephritis” (priority 2000, published 2004)

Key:
[1] = EPR detection of the oxidant in dialysate with DBNBS and its analogues
[2] = Effect of sulphite on the EPR signal of the DBNBS radical cation (DBNBS reacted with plasma or urine); design: species or system human
Protocol: The characteristic spectrum of DBNBS-SO3^●− was a 9 line signal with an aN=1.32 mT and aH=0.06 mT (FIG. 8). This was obtained by reacting DBNBS with hydrogen peroxide and horseradish peroxidase. The addition of 10 mM sulphite to the reaction mixture caused the signal to increase by over 100 fold in intensity. The signal could also be obtained by reacting DBNBS with sulphite alone. However, when the DBNBS was reacted with the plasma of patients with renal failure and the urine from a normal individual, only the 3 line signal with an aN=1.32 mT was seen (FIGS. 7 & 9, respectively). The hydrogen hyperfine splitting seen in the spectrum of DBNBS-SO3^●− was absent. […] Therefore, we confirmed that DBNBS-SO3^●− and the DBNBS radical cation generated by renal patients' plasma or normal urine were completely different radicals.
Addition of sulphite to the mixture of DBNBS and plasma or urine decreased the signal height of the DBNBS radical cation. This could affect the determination of the oxidant in biological samples if there was sulphite contamination in the DBNBS preparation or endogenous sulphite in the biological sample itself. Therefore the dose response effect on addition of sulphite to the reaction mixture was investigated. […]

[3] = spin trap concentration 2.5 mM, relative to DBNBS at 1.2 mM

Row | Structure (SMILES) | % of DBNBS signal [1, 3] [%] | further results
1 | [2H]c1c(Br)c(N=O)c(Br)c([2H])c1S(=O)(=O)[O-].[Na+] [DBNBS-d2] | 122.0 | –
2 | O=Nc1c(Br)cc(S(=O)(=O)O)cc1Br [DBNBS, 3,5-dibromo-4-nitrosobenzene sulphonate] | – | % of DBNBS signal ([1]; spin trap concentration 1.2 mM): 100.0%
3 | O=[15N]c1c(Br)cc(S(=O)(=O)[O-])cc1Br.[Na+] [^15N-DBNBS] | 156.5 | –
4 | O=Nc1c(Cl)cc(S(=O)(=O)O)cc1Cl [DCNBS, 3,5-dichloro-4-nitrosobenzene sulphonate] | 101.0 | –
5 | [2H]c1c(Br)c([15N]=O)c(Br)c([2H])c1S(=O)(=O)[O-].[Na+] [DBNBS-d2-^15N] | 181.1 | –
6 | O=S([O-])[O-].[K+].[K+] [sulphite, dipotassium sulphite] | – | effect on signal height (DBNBS with plasma of renal failure patients or normal urine) ([2]; addition of 1 mM and 10 mM sulphite): caused a decrease in signal height; effect on the 3 line signal of the DBNBS radical cation ([2]; final concentration of 2 mM sulphite in the reaction mixture): completely abolished
